Results reported in paper PMC7273913.

B1: Human FANCL URD-RING (residues 109–375), wild type (domain or fragment, UniProt Q9NW38 109-375)
chain: QFYSSLIEEIGTLGWDKLVYADTCFSTIKLKAEDASGREHLITLKLKAKYPAESPDYFVDFPVPFCASWTPQSSLISIYSQFLAAIESLKAFWDVMDEIDEKTWVLEPEKPPRSATARRIALGNNVSINIEVDPRHPTMLPECFFLGADHVVKPLGIKLSRNIHLWDPENSVLQNLKDVLEIDFPARAILEKSDFTMDCGICYAYQLDGTIPDQVCDNSQCGQPFHQICLYEWLRGLLTSRQSFNIIFGECPYCSKPITLKMSGRKH
B2: Human FANCL URD-RING (109–375) E217K (domain or fragment, UniProt Q9NW38 109-375)
chain: QFYSSLIEEIGTLGWDKLVYADTCFSTIKLKAEDASGREHLITLKLKAKYPAESPDYFVDFPVPFCASWTPQSSLISIYSQFLAAIESLKAFWDVMDEIDEKTWVLEPKKPPRSATARRIALGNNVSINIEVDPRHPTMLPECFFLGADHVVKPLGIKLSRNIHLWDPENSVLQNLKDVLEIDFPARAILEKSDFTMDCGICYAYQLDGTIPDQVCDNSQCGQPFHQICLYEWLRGLLTSRQSFNIIFGECPYCSKPITLKMSGRKH
B3: Human FANCL URD-RING (109–375) T224K (domain or fragment, UniProt Q9NW38 109-375)
chain: QFYSSLIEEIGTLGWDKLVYADTCFSTIKLKAEDASGREHLITLKLKAKYPAESPDYFVDFPVPFCASWTPQSSLISIYSQFLAAIESLKAFWDVMDEIDEKTWVLEPEKPPRSAKARRIALGNNVSINIEVDPRHPTMLPECFFLGADHVVKPLGIKLSRNIHLWDPENSVLQNLKDVLEIDFPARAILEKSDFTMDCGICYAYQLDGTIPDQVCDNSQCGQPFHQICLYEWLRGLLTSRQSFNIIFGECPYCSKPITLKMSGRKH
B4: Human FANCL URD-RING (109–375) hydrophobic patch mutant L248A, F252A, L254A, I265A (domain or fragment, UniProt Q9NW38 109-375)
chain: QFYSSLIEEIGTLGWDKLVYADTCFSTIKLKAEDASGREHLITLKLKAKYPAESPDYFVDFPVPFCASWTPQSSLISIYSQFLAAIESLKAFWDVMDEIDEKTWVLEPEKPPRSATARRIALGNNVSINIEVDPRHPTMAPECAFAGADHVVKPLGAKLSRNIHLWDPENSVLQNLKDVLEIDFPARAILEKSDFTMDCGICYAYQLDGTIPDQVCDNSQCGQPFHQICLYEWLRGLLTSRQSFNIIFGECPYCSKPITLKMSGRKH
B5: Human FANCL URD-RING (109–375) A192G (domain or fragment, UniProt Q9NW38 109-375)
chain: QFYSSLIEEIGTLGWDKLVYADTCFSTIKLKAEDASGREHLITLKLKAKYPAESPDYFVDFPVPFCASWTPQSSLISIYSQFLGAIESLKAFWDVMDEIDEKTWVLEPEKPPRSATARRIALGNNVSINIEVDPRHPTMLPECFFLGADHVVKPLGIKLSRNIHLWDPENSVLQNLKDVLEIDFPARAILEKSDFTMDCGICYAYQLDGTIPDQVCDNSQCGQPFHQICLYEWLRGLLTSRQSFNIIFGECPYCSKPITLKMSGRKH
B6: Human FANCL URD-RING (109–375) M247V (domain or fragment, UniProt Q9NW38 109-375)
chain: QFYSSLIEEIGTLGWDKLVYADTCFSTIKLKAEDASGREHLITLKLKAKYPAESPDYFVDFPVPFCASWTPQSSLISIYSQFLAAIESLKAFWDVMDEIDEKTWVLEPEKPPRSATARRIALGNNVSINIEVDPRHPTVLPECFFLGADHVVKPLGIKLSRNIHLWDPENSVLQNLKDVLEIDFPARAILEKSDFTMDCGICYAYQLDGTIPDQVCDNSQCGQPFHQICLYEWLRGLLTSRQSFNIIFGECPYCSKPITLKMSGRKH
B7: Human FANCL URD-RING (109–375) N270K (domain or fragment, UniProt Q9NW38 109-375)
chain: QFYSSLIEEIGTLGWDKLVYADTCFSTIKLKAEDASGREHLITLKLKAKYPAESPDYFVDFPVPFCASWTPQSSLISIYSQFLAAIESLKAFWDVMDEIDEKTWVLEPEKPPRSATARRIALGNNVSINIEVDPRHPTMLPECFFLGADHVVKPLGIKLSRKIHLWDPENSVLQNLKDVLEIDFPARAILEKSDFTMDCGICYAYQLDGTIPDQVCDNSQCGQPFHQICLYEWLRGLLTSRQSFNIIFGECPYCSKPITLKMSGRKH
B8: Human FANCL URD-RING (109–375) E289Q (domain or fragment, UniProt Q9NW38 109-375)
chain: QFYSSLIEEIGTLGWDKLVYADTCFSTIKLKAEDASGREHLITLKLKAKYPAESPDYFVDFPVPFCASWTPQSSLISIYSQFLAAIESLKAFWDVMDEIDEKTWVLEPEKPPRSATARRIALGNNVSINIEVDPRHPTMLPECFFLGADHVVKPLGIKLSRNIHLWDPENSVLQNLKDVLQIDFPARAILEKSDFTMDCGICYAYQLDGTIPDQVCDNSQCGQPFHQICLYEWLRGLLTSRQSFNIIFGECPYCSKPITLKMSGRKH
B9: Human FANCL URD-RING (109–375) L149V (domain or fragment, UniProt Q9NW38 109-375)
chain: QFYSSLIEEIGTLGWDKLVYADTCFSTIKLKAEDASGREHVITLKLKAKYPAESPDYFVDFPVPFCASWTPQSSLISIYSQFLAAIESLKAFWDVMDEIDEKTWVLEPEKPPRSATARRIALGNNVSINIEVDPRHPTMLPECFFLGADHVVKPLGIKLSRNIHLWDPENSVLQNLKDVLEIDFPARAILEKSDFTMDCGICYAYQLDGTIPDQVCDNSQCGQPFHQICLYEWLRGLLTSRQSFNIIFGECPYCSKPITLKMSGRKH
B10: Human FANCL URD-RING (109–375) L154S (domain or fragment, UniProt Q9NW38 109-375)
chain: QFYSSLIEEIGTLGWDKLVYADTCFSTIKLKAEDASGREHLITLKSKAKYPAESPDYFVDFPVPFCASWTPQSSLISIYSQFLAAIESLKAFWDVMDEIDEKTWVLEPEKPPRSATARRIALGNNVSINIEVDPRHPTMLPECFFLGADHVVKPLGIKLSRNIHLWDPENSVLQNLKDVLEIDFPARAILEKSDFTMDCGICYAYQLDGTIPDQVCDNSQCGQPFHQICLYEWLRGLLTSRQSFNIIFGECPYCSKPITLKMSGRKH
B11: Human FANCL URD-RING (109–375) R221W (domain or fragment, UniProt Q9NW38 109-375)
chain: QFYSSLIEEIGTLGWDKLVYADTCFSTIKLKAEDASGREHLITLKLKAKYPAESPDYFVDFPVPFCASWTPQSSLISIYSQFLAAIESLKAFWDVMDEIDEKTWVLEPEKPPWSATARRIALGNNVSINIEVDPRHPTMLPECFFLGADHVVKPLGIKLSRNIHLWDPENSVLQNLKDVLEIDFPARAILEKSDFTMDCGICYAYQLDGTIPDQVCDNSQCGQPFHQICLYEWLRGLLTSRQSFNIIFGECPYCSKPITLKMSGRKH

Target: Xenopus laevis FANCD2, 6xHis-tagged (Xenopus laevis)
Experiment: pull-down; 0.5 µg 6xHis-FANCD2 as bait on magnetic Ni-NTA, 10 µg FANCL URD-RING as prey; 4°C, 2 h; 100 mM Tris pH 8, 100 mM NaCl, 0.05% Triton-X, 0.1% BSA; three washes; SDS-PAGE, Coomassie stain quantified, corrected for the beads-only control and normalized to WT; both purified

Question: B1 was tested. Which binding did it give?
Answer: binds

Question: B2 was tested. Which binding did it give?
Answer: binds

Question: B3 was tested. Which binding did it give?
Answer: binds

Question: B4 was tested. Which binding did it give?
Answer: binds

Question: Which binding does the source give for B5 here?
Answer: binds

Question: B6 was tested. Which binding did it give?
Answer: binds

Question: With B7 as the binder, how does the binding read?
Answer: binds

Question: B8 was tested. Which binding did it give?
Answer: binds

Question: How did the binding turn out when B9 was run?
Answer: binds

Question: For B10, which binding is on record?
Answer: binds

Question: How did the binding turn out when B11 was run?
Answer: binds

Results are given in words; binding and its absence hold for the method and conditions named. Binding can be weak; no strength is given.
